## Cell number after 72 h of treatment

Data from the primary screen of doi:10.1371/journal.pone.0140310, rounded.

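Human melanoma cells were exposed to two drugs together for 72 h in 1,536-well plates and read by automated microscopy after fixing and staining. Each value is the count of nuclei relative to DMSO-treated wells, in %, so that 100 equals the control. Concentrations were fixed for each drug; these are the higher of two levels. The file gives one value for each pair and line, without errors, so small differences may be noise.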
An unselected part of the screen is shown.

Drug key:
T0901317, 7000 nM: O=S(=O)(c1ccccc1)N(CC(F)(F)F)c1ccc(C(O)(C(F)(F)F)C(F)(F)F)cc1
midostaurin, 400 nM: CO[C@@H]1[C@H](N(C)C(=O)c2ccccc2)C[C@H]2O[C@]1(C)n1c3ccccc3c3c4c(c5c6ccccc6n2c5c31)C(=O)NC4
nilutamide, 5000 nM: CC1(C)NC(=O)N(c2ccc([N+](=O)[O-])c(C(F)(F)F)c2)C1=O
KU-0063794, 100 nM: COc1ccc(-c2ccc3c(N4CCOCC4)nc(N4C[C@@H](C)O[C@@H](C)C4)nc3n2)cc1CO
NVP-TAE684, 400 nM: COc1cc(N2CCC(N3CCN(C)CC3)CC2)ccc1Nc1ncc(Cl)c(Nc2ccccc2S(=O)(=O)C(C)C)n1
sunitinib, 2000 nM: CCN(CC)CCNC(=O)c1c(C)[nH]c(/C=C2\C(=O)Nc3ccc(F)cc32)c1C
pioglitazone, 10000 nM: CCc1ccc(CCOc2ccc(CC3SC(=O)NC3=O)cc2)nc1 (centres undefined)
CP-690550, 5000 nM: C[C@@H]1CCN(C(=O)CC#N)C[C@@H]1N(C)c1ncnc2[nH]ccc12
GSK650394, 800 nM: O=C(O)c1ccc(-c2c[nH]c3ncc(-c4ccccc4)cc23)cc1C1CCCC1
veliparib, 7000 nM: C[C@]1(c2nc3c(C(N)=O)cccc3[nH]2)CCCN1
GW2580, 5000 nM: COc1ccc(COc2ccc(Cc3cnc(N)nc3N)cc2OC)cc1
FH535, 5000 nM: Cc1cc([N+](=O)[O-])ccc1NS(=O)(=O)c1cc(Cl)ccc1Cl
embelin, 6000 nM: CCCCCCCCCCCC1=C(O)C(=O)C=C(O)C1=O
SNS-314, 4 nM: O=C(Nc1cccc(Cl)c1)Nc1ncc(CCNc2ncnc3ccsc23)s1
vincristine, 0.5 nM: CC[C@]1(O)C[C@H]2CN(CCc3c([nH]c4ccccc34)[C@@](C(=O)OC)(c3cc4c(cc3OC)N(C=O)[C@H]3[C@@](O)(C(=O)OC)[C@H](OC(C)=O)[C@]5(CC)C=CCN6CC[C@]43[C@@H]65)C2)C1
bortezomib, 5 nM: CC(C)C[C@H](NC(=O)[C@H](Cc1ccccc1)NC(=O)c1cnccn1)B(O)O
tozasertib, 30 nM: Cc1cc(Nc2cc(N3CCN(C)CC3)nc(Sc3ccc(NC(=O)C4CC4)cc3)n2)n[nH]1
vatalanib, 10000 nM: Clc1ccc(Nc2nnc(Cc3ccncc3)c3ccccc23)cc1
vorinostat, 400 nM: O=C(CCCCCCC(=O)Nc1ccccc1)NO

{"pair": "sunitinib + CP-690550", "COLO 829": 99.9, "COLO 800": 69.2, "COLO 792": 54.1, "C32": 66.2}
{"pair": "SNS-314 + FH535", "COLO 829": 69.6, "COLO 800": 68.3, "COLO 792": 53.7, "C32": 67.2}
{"pair": "nilutamide + sunitinib", "COLO 829": 95.1, "COLO 800": 44.8, "COLO 792": 34.9, "C32": 89.9}
{"pair": "pioglitazone + KU-0063794", "COLO 829": 109, "COLO 800": 110, "COLO 792": 93.0, "C32": 92.4}
{"pair": "tozasertib + veliparib", "COLO 829": 65.3, "COLO 800": 38.8, "COLO 792": 74.3, "C32": 72.7}
{"pair": "nilutamide + T0901317", "COLO 829": 98.9, "COLO 800": 84.1, "COLO 792": 81.7, "C32": 89.6}
{"pair": "embelin + CP-690550", "COLO 829": 88.8, "COLO 800": 124, "COLO 792": 98.8, "C32": 126}
{"pair": "vatalanib + CP-690550", "COLO 829": 59.7, "COLO 800": 50.7, "COLO 792": 51.5, "C32": 96.7}
{"pair": "FH535 + CP-690550", "COLO 829": 93.1, "COLO 800": 90.8, "COLO 792": 63.0, "C32": 108}
{"pair": "embelin + nilutamide", "COLO 829": 86.8, "COLO 800": 90.0, "COLO 792": 99.2, "C32": 110}
{"pair": "veliparib + NVP-TAE684", "COLO 829": 95.8, "COLO 800": 49.1, "COLO 792": 80.9, "C32": 68.7}
{"pair": "nilutamide + KU-0063794", "COLO 829": 108, "COLO 800": 88.1, "COLO 792": 80.8, "C32": 100}
{"pair": "GSK650394 + NVP-TAE684", "COLO 829": 76.4, "COLO 800": 45.8, "COLO 792": 74.0, "C32": 71.8}
{"pair": "FH535 + nilutamide", "COLO 829": 84.8, "COLO 800": 82.7, "COLO 792": 53.6, "C32": 99.5}
{"pair": "sunitinib + bortezomib", "COLO 829": 15.8, "COLO 800": 93.9, "COLO 792": 61.8, "C32": 24.6}
{"pair": "bortezomib + KU-0063794", "COLO 829": 21.7, "COLO 800": 76.2, "COLO 792": 59.0, "C32": 39.1}
{"pair": "vincristine + vorinostat", "COLO 829": 73.6, "COLO 800": 55.9, "COLO 792": 82.8, "C32": 108}
{"pair": "midostaurin + vincristine", "COLO 829": 68.4, "COLO 800": 31.3, "COLO 792": 60.7, "C32": 71.0}
{"pair": "midostaurin + NVP-TAE684", "COLO 829": 63.6, "COLO 800": 38.8, "COLO 792": 63.0, "C32": 49.1}
{"pair": "SNS-314 + KU-0063794", "COLO 829": 90.3, "COLO 800": 49.7, "COLO 792": 50.4, "C32": 86.8}
{"pair": "KU-0063794 + midostaurin", "COLO 829": 63.3, "COLO 800": 27.1, "COLO 792": 55.8, "C32": 66.4}
{"pair": "pioglitazone + bortezomib", "COLO 829": 11.0, "COLO 800": 91.3, "COLO 792": 29.4, "C32": 24.9}
{"pair": "bortezomib + GW2580", "COLO 829": 11.2, "COLO 800": 84.3, "COLO 792": 46.2, "C32": 36.4}
{"pair": "nilutamide + tozasertib", "COLO 829": 91.2, "COLO 800": 42.6, "COLO 792": 91.4, "C32": 71.3}
{"pair": "veliparib + GW2580", "COLO 829": 81.4, "COLO 800": 59.9, "COLO 792": 93.8, "C32": 85.2}
{"pair": "nilutamide + vincristine", "COLO 829": 83.7, "COLO 800": 64.6, "COLO 792": 84.2, "C32": 80.0}
{"pair": "FH535 + tozasertib", "COLO 829": 77.3, "COLO 800": 48.6, "COLO 792": 84.2, "C32": 76.5}
{"pair": "T0901317 + bortezomib", "COLO 829": 9.1, "COLO 800": 47.0, "COLO 792": 23.1, "C32": 18.3}
{"pair": "pioglitazone + nilutamide", "COLO 829": 113, "COLO 800": 90.2, "COLO 792": 77.1, "C32": 83.1}
{"pair": "GSK650394 + vatalanib", "COLO 829": 62.2, "COLO 800": 79.4, "COLO 792": 54.0, "C32": 95.1}
{"pair": "midostaurin + tozasertib", "COLO 829": 74.2, "COLO 800": 41.7, "COLO 792": 40.0, "C32": 57.4}
{"pair": "sunitinib + vorinostat", "COLO 829": 116, "COLO 800": 34.0, "COLO 792": 40.6, "C32": 82.4}
{"pair": "GW2580 + SNS-314", "COLO 829": 93.0, "COLO 800": 48.3, "COLO 792": 65.0, "C32": 75.1}
{"pair": "SNS-314 + tozasertib", "COLO 829": 63.3, "COLO 800": 27.0, "COLO 792": 40.0, "C32": 55.0}

2 of the entries, repeated:

{"pair": "nilutamide + T0901317", "COLO 829": 98.9, "COLO 800": 84.1, "COLO 792": 81.7, "C32": 89.6}
{"pair": "veliparib + GW2580", "COLO 829": 81.4, "COLO 800": 59.9, "COLO 792": 93.8, "C32": 85.2}